Source: paper PMC8042982
No constants are given. Whether binding was seen depends on the method and setting. Binding seen in cells or lysates may run through a third protein. Some binding calls cover weakened binding; strength is not graded here.

Legend:
[1] = target: TIP60-HA (UniProt Q92993); assay: co-IP; HEK293T cells co-transfected, whole cell extracts 24 h after transfection (50 mM Tris pH 8, 150 mM NaCl, 5 mM EDTA, 0.5% NP40, 1 mM DTT), sonicated; IP with anti-HA tag antibody (µMACS isolation kit for tagged proteins), eluates immunoblotted
[2] = target: p53-EGFP (UniProt P04637); assay: co-IP; HEK293T cells co-transfected, whole cell extracts 24 h after transfection (50 mM Tris pH 8, 150 mM NaCl, 5 mM EDTA, 0.5% NP40, 1 mM DTT), sonicated; IP with anti-GFP antibody (µMACS isolation kit for tagged proteins), eluates immunoblotted

Row | Substance | binding [1] | binding [2]
1 | p53-EGFP (from UniProt P04637 1-393) | binds | –
2 | TIP60-HA (from UniProt Q92993 1-513) | – | binds
